In PubChem BioAssay AID2685 (National Center for Advancing Translational Sciences (NCATS), 2010):
Some of the results follow. The main result of the screen is listed elsewhere. These columns were measured beside it and carry no call. Compounds called inactive in the main read-out are mostly missing here. Words in brackets tell the shape of the fitted curve; partial curves, single points and poor fits give uncertain potencies.

Experiment: qHTS Assay for Lipid Storage Modulators in Drosophila S3 Cells;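 for cell number change: cells counted by Cell Tracker Red CMTPX staining in the red channel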
Settings: BODIPY lipid droplet fluorescence, 18-24 h; for cell number change: measured here: cell count max response, cells fed with added oleic acid
Procedure, shortened: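 Drosophila S3 cells loaded with oleic acid (400 uM, as added) and compounds at several concentrations; lipid droplets imaged by 488-nm laser-scanning cytometry, 500–530 nm intensity and object ratio to cell channel. Percent activity normalized to 20 uM Triacsin C.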

[1] = measured here: lipid fluorescence (Fed channel) AC50, cells fed with added oleic acid
[2] = measured here: cell number channel AC50, cells fed with added oleic acid

Row | Structure (SMILES) | cell number change | AC50 [1] | AC50 [2]
1 | Cc1nc(C(=O)N(C)C)nn1-c1ccc(Cl)cc1Cl | -7.16% | 4.11 µM [falling, single point] | –
2 | CC(=O)Oc1cccc(C(=O)Nc2ccccc2NC(=O)c2cccc(OC(C)=O)c2)c1 | -31.9% | – | 0.651 µM [falling, full curve, poor fit]
3 | Cc1ccccc1NS(=O)(=O)c1ccc(C)c(NS(C)(=O)=O)c1C | -23.2% | 1.16 µM [falling, full curve] | 0.92 µM [falling, full curve, poor fit]
4 | COC(=O)c1c(C)[nH]c(C(=O)C(C)OC(=O)C2CC2C)c1C (stereo unspecified) | -1.48% | 29.1 µM [rising, single point] | –
5 | CCN1/C(=C/c2ccc3cc(C)ccc3[n+]2C)Sc2ccc3sccc3c21 | -10.6% | 1.3 µM [falling, full curve] | 2.06 µM [falling, partial curve]
6 | CNS(=O)(=O)c1cc(OCC(N)=O)c(C)cc1Cl | -6.22% | 0.146 µM [rising, full curve, poor fit] | –
7 | O=C(Nc1ccc(Cl)c(S(=O)(=O)Nc2ccccc2Cl)c1)c1cccs1 | 57% | 8.2 µM [rising, partial curve] | 9.2 µM [rising, partial curve]
8 | CC(=O)Nc1ccc(OC(=O)c2cccnc2)cc1 | 15.2% | 3.66 µM [falling, single point] | –
9 | N#C/C(=C/c1ccc(O)cc1)C(=O)NCc1ccc(Cl)cc1 | 30.3% | 1.58 µM [falling, full curve] | 0.058 µM [rising, full curve, poor fit]
10 | COc1ccc(C(CNC(=O)c2ccc(Cl)c(NC(=O)c3cccs3)c2)N2CCCC2)cc1 (stereo unspecified) | 101% | – | 20.6 µM [rising, single point]
11 | COc1ccccc1N1CCN(C(=O)CSc2nnc3c4ccccc4nc(Cc4ccccc4)n23)CC1 | 5.61% | 0.0517 µM [rising, full curve, poor fit] | –
12 | CCCN(CCC)C(=O)Cn1c2ccccc2c2nc(=O)cc(C)n21 | 0.659% | 0.116 µM [falling, full curve, poor fit] | –
13 | CC(=O)Nc1ccc2c(c1)nc(C)n2Cc1ccccc1 | 9.85% | 29.1 µM [rising, single point] | –
14 | COc1cc(/C=N\NC(=O)c2ccc(Cn3nc([N+](=O)[O-])c(Cl)c3C)o2)ccc1O | 78.9% | 6.51 µM [rising, single point] | 10.3 µM [rising, partial curve]
15 | CCOC(=O)C1=C(c2cccc(Oc3ccccc3)c2)NC(=S)NC1C (stereo unspecified) | -2.34% | – | –
16 | O=C(NCc1nc2ccccc2[nH]1)c1ccc(Cl)c(S(=O)(=O)N2CCCC2)c1 | – | 6.51 µM [rising, partial curve, poor fit] | 4.61 µM [rising, partial curve, poor fit]
17 | COC(=O)N/N=C/c1ccc(Oc2ccccc2)cc1 | 28.4% | 0.58 µM [falling, single point] | –
18 | c1ccc(Cc2ccc(OCCCNC3CCCC3)cc2)cc1 | -23.8% | 1.16 µM [falling, single point] | –

Exported as comma-separated lines: two of the compounds above.
Row,Structure (SMILES),cell number change,AC50 [1],AC50 [2]
4,COC(=O)c1c(C)[nH]c(C(=O)C(C)OC(=O)C2CC2C)c1C (stereo unspecified),-1.48%,"29.1 µM [rising, single point]",–
5,CCN1/C(=C/c2ccc3cc(C)ccc3[n+]2C)Sc2ccc3sccc3c21,-10.6%,"1.3 µM [falling, full curve]","2.06 µM [falling, partial curve]"

The results go on.

Row | Structure (SMILES) | cell number change | AC50 [1] | AC50 [2]
19 | O=S(=O)(c1ccc(C2CCCCC2)cc1)N1CCCC1 | 10% | 0.366 µM [falling, full curve] | 0.013 µM [falling, full curve, poor fit]
20 | CN(c1ccccc1)S(=O)(=O)c1ccc(NC(=S)Nc2ccccc2)cc1 | -7.34% | – | –
21 | Cc1ccc(C2=NN=C(NC(=O)CSc3nnc4c5ccccc5n(C)c4n3)SC2)cc1 | 19.5% | 29.1 µM [rising, single point] | –
22 | CCc1ccc(OCc2nnc(SCCN3CCOCC3)n2CC)cc1 | -2.09% | 18.4 µM [rising, single point] | –
23 | O=C(NCCCNC(=O)c1cccs1)c1cccs1 | -10.7% | 0.0164 µM [falling, full curve] | –
24 | O=C(CCC(=O)Nc1nnc(C2CCCCC2)s1)Nc1ccc(F)cc1 | 42.7% | 0.58 µM [falling, single point] | 18.4 µM [rising, single point]
25 | Cc1cc(NC(=O)CN(C)S(=O)(=O)c2cnc[nH]2)ccc1Br | 20% | 0.58 µM [rising, single point] | –
26 | CC1(C)Cc2c(C#N)c(N3CCCC3)nc(-c3ccco3)c2CO1 | -32.9% | – | 3.26 µM [falling, single point]
27 | CC1CC(C)CN(S(=O)(=O)c2ccc3c(c2)CCN3C(=O)C2CC2)C1 (stereo unspecified) | -7.98% | 29.1 µM [rising, single point] | –
28 | CCNC(=S)Nc1ccc(N2CCCCC2)cc1 | -30.4% | 0.206 µM [falling, full curve, poor fit] | 0.184 µM [falling, full curve, poor fit]
29 | Cc1ccc(C)c(S(=O)(=O)NCC(c2ccc3c(c2)OCO3)N2CCOCC2)c1 (stereo unspecified) | 28.2% | – | –
30 | O=C(O)Cn1nc(-c2ccccc2)ccc1=O | 3.17% | 18.4 µM [rising, partial curve] | –
31 | CCC(=O)Nc1ccc(C=C(C(C)=O)C(C)=O)cc1 | -33.7% | 0.731 µM [falling, full curve, poor fit] | 0.82 µM [falling, full curve, poor fit]
32 | O=C(CSc1nc2ccccc2c(=O)n1Cc1ccc(C(=O)NC2CC2)cc1)NCc1ccco1 | -167% | – | –
33 | CSc1nc(N2CCOCC2)c2ccccc2n1 | – | 6.51 µM [rising, partial curve] | 6.51 µM [rising, single point]
34 | COc1cccc(C(=O)COc2cccc(NC(=O)c3cccc([N+](=O)[O-])c3)c2)c1 | – | 16.4 µM [falling, partial curve] | –
35 | COC(=O)c1cc(S(=O)(=O)N2CCN(c3ccc(OC)cc3)CC2)cn1C | 47.7% | – | 20.6 µM [rising, single point]
36 | COC(=O)[C@@]12CCCN1[C@H](c1ccc(-c3ccccc3)cc1)[C@H]1C(=O)N(C)C(=O)[C@H]12 | -23.1% | 0.0092 µM [rising, full curve, poor fit] | –
